Assay results from PubChem BioAssay AID504648 (National Center for Advancing Translational Sciences (NCATS), 2011).
Among all 390,000 compounds or so, about 610 (0.16%) were called active. Inconclusive means that the source gave no clear call. Such entries were picked first, then a sample of the others. Calls follow the shape of the dose curve; as a rule, active = well fitted inhibition curve with a large enough effect; inconclusive = small, poorly fitted or top-dose-only effect, or effect the other way, or another doubt; inactive = no such curve, though single readings can be large or run the other way. A potency beside an inconclusive call is a rough fit, not a confirmed value.

assay: Nrf2 qHTS screen for inhibitors: counterscreen for cytotoxicity; conditions: A549 ARE-Fluc cells, CellTiter-Fluor viability, 18-24 h; series mostly up to 46 µM
Outline: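 Cytotoxicity counterscreen: CellTiter-Fluor fluorescence was measured in A549 ARE_Fluc cells after 18-24 h of compound exposure in a concentration series. The subsequent BugLite luminescent read reports ARE-luciferase activity.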
Potency is read from the fitted curve at half-maximal effect.

Structure (SMILES) | Potency
Cc1c(Cl)cccc1NC(=O)N1CCC(CN2CCCC2)CC1 | inactive
COc1ccccc1CNS(=O)(=O)c1ccc2[nH]c3c(c2c1)CCCCC3 | inconclusive: 32.6 µM [falling, partial curve, poor fit]
O=C(CNC(=O)C1CCCCC1)OCC(=O)c1ccc2c(c1)CCC2 | inactive
COc1ccc(OCC(O)Cn2c(=N)n(Cc3ccccc3)c3ccccc32)cc1 (stereo not drawn) | inconclusive: 29.1 µM [falling, single point]
COc1ccc(C2=Nn3c(nnc3-c3ccccc3C(F)(F)F)SC2)cc1OC1CCOC1 (stereo not drawn) | inactive
CC1=CC(C)(C)N2C(=O)C3(C(C#N)=C(N)Oc4cc(O)ccc43)c3c(C)c(C)cc1c32 (stereo not drawn) | inconclusive: 18.4 µM [falling, partial curve, poor fit]
CCCC12CN3CC(C)(CN(C1)C31C(=O)Nc3ccc(C)cc31)C2=O (stereo not drawn) | inactive
NC1(C(=O)O)CSSC1 | inconclusive: 20.6 µM [falling, single point]
CCC(C)c1ccc(OCC(=O)Nc2cccc(-c3nc4ncccc4o3)c2)cc1 (stereo not drawn) | inactive
CSCCC(NS(=O)(=O)c1ccc2c(c1)OCCO2)C(=O)N(C)Cc1ccc(F)cc1 (stereo not drawn) | inactive
CC(C)c1ccccc1OCCCCCNCCO | inconclusive: 5.8 µM [falling, partial curve, poor fit]
C=CC[C@@H](CC(=O)N(CCO)Cc1ccccc1)C(=O)N[C@@H](COC(=O)[C@@H](CC=C)Cc1ccc(F)cc1)Cc1c[nH]c2ccccc12 | inconclusive: 29.1 µM [falling, single point]
O=C(CSc1nc2ccccc2c(=O)n1CCCN1CCOCC1)c1c[nH]c2ccccc12 | inconclusive: 29.1 µM [falling, single point]
Cc1c(N/N=C(\C#N)C(=O)c2ccccc2)c(=O)n(-c2ccccc2)n1C | active: 20.6 µM
CC(C)CCN(C(=O)Cc1ccc(Cl)c(Cl)c1)c1c(N)n(Cc2ccccc2)c(=O)[nH]c1=O | inconclusive: 13 µM [falling, single point]
CCc1ccc(NC2=CC(=O)C(=O)c3ccccc32)cc1 | inconclusive: 29.1 µM [falling, single point]
Cc1cc(C)nc(SCC(=O)Nc2ncc(Cc3ccc(Cl)c(Cl)c3)s2)n1 | inconclusive: 29.1 µM [falling, single point]
O=C(CN(Cc1ccccc1)C(=O)CCl)c1cccc(Br)c1 | inactive
COc1cc(CNC(C)(C)CO)cc(Br)c1OCc1ccc(Cl)cc1Cl | inconclusive: 5.17 µM [activator, full curve, poor fit]
Cc1ccc(NC(=O)CSc2ncnc3ccccc23)cc1S(=O)(=O)N1CCCCC1 | inconclusive: 29.1 µM [falling, single point]
CNC(=S)N/N=C/c1cccc(OCc2ccccc2F)c1 | inactive
O=C(Nc1ccc(C(F)(F)F)cc1)c1cc(S(=O)(=O)NC2CCCCCC2)ccc1F | inconclusive: 23.1 µM [falling, single point]
Cc1ccc2c(CNCc3cccc(Cl)c3)c(C(=O)O)n(Cc3ccc(F)cc3Cl)c2c1 | inactive

Structure (SMILES) | Potency
CC1(C)OC(=O)C2(Cc3ccc(Br)cc3N3CCCCC32)C(=O)O1 (stereo not drawn) | inactive
CCN(CC)CCNC(=O)c1ccc(N2CCCCC2)c(NS(=O)(=O)c2ccc(C)cc2)c1 | inconclusive: 2.59 µM [falling, full curve]
COc1ccc(C(=O)c2ccc(N(C)C)cc2)c(OC)c1 | inconclusive: 5.01 µM [falling, partial curve, poor fit]
COc1ccc(C(=O)/C(C#N)=N/Nc2cccc([N+](=O)[O-])c2)cc1 | inconclusive: 20.6 µM [falling, single point]
O=[N+]([O-])c1cccnc1N1CCC(c2cc(-c3ccc(Cl)cc3Cl)n[nH]2)CC1 | inconclusive: 23.1 µM [falling, single point]
CC(O)(C#CCN1CCOCC1)c1ccccc1 (stereo not drawn) | inconclusive: 23.1 µM [activator, partial curve, poor fit]
COCCOC(=O)c1c(NC(=O)CN2c3ccccc3CC2C)sc(C(N)=O)c1C (stereo not drawn) | inactive
Cc1ccc(-n2c3nc(=O)[nH]c(=O)c-3cc3cc([N+](=O)[O-])ccc32)cc1 | inconclusive: 29.1 µM [falling, single point]
Cc1cccc(C)c1Nc1c(-c2ccccc2Cl)nc2cnccn12 | inactive
Brc1ccc(Cn2c(-c3ccc(Br)o3)nc3ccccc32)o1 | inconclusive: 32.6 µM [activator, partial curve, poor fit]
CCCCNC(=O)c1ccc(Cn2c(=S)[nH]c3c([nH]c4ccc(OC)cc43)c2=O)cc1 | inconclusive: 29.1 µM [falling, single point]
O=C(Nc1ccc(F)c(Cl)c1)N1CCN2CCCCC2C1 (stereo not drawn) | inactive
COc1ccccc1-c1cc(C(F)(F)F)nc(S(=O)(=O)CCCC(=O)Nc2cccnc2Cl)n1 | inconclusive: 29.1 µM [falling, single point]
O=S(=O)(Nc1cccc2ccccc12)c1ccccc1F | inactive
CCOc1ccc(S(=O)(=O)N2CCOCC2)cc1NC(=O)CN1C(=O)NC2(CCCC2)C1=O | inconclusive: 41.1 µM [activator, partial curve, poor fit]
CCCC(=O)N1CCN(c2nnc(-c3ccccc3)c3ccccc23)CC1 | inactive
CN1C(=O)Cc2cc(S(=O)(=O)NCc3c(F)cccc3Cl)ccc21 | inconclusive: 20.6 µM [falling, single point]
CCc1cccc2sc(N3CCN(C(=O)C4CC4)CC3)nc12 | inactive
CCOC(=O)N1CCC(c2cc(=O)n3[nH]c(-c4ccccc4)cc3n2)CC1 | inactive
Cc1nc(N)nc(N)c1-c1ccc(Cl)c(Cl)c1 | inactive
CC1=NNC(=O)/C1=C\c1cn(-c2ccccc2)nc1-c1ccccc1 | inconclusive: 20.6 µM [falling, single point]
CC1(C)CC(=O)C2=C(C1)NC(SCC(=O)Nc1ccccc1)=C(C#N)C21CCCCC1 | inconclusive: 29.1 µM [falling, partial curve, poor fit]
CCN(C(=O)COC(=O)CCCN1C(=O)c2cccc3cccc(c23)C1=O)C1CCS(=O)(=O)C1 (stereo not drawn) | inactive

Fetched by compound from the entries so far (four):
Structure (SMILES) | Potency
O=S(=O)(Nc1cccc2ccccc12)c1ccccc1F | inactive
CCOc1ccc(S(=O)(=O)N2CCOCC2)cc1NC(=O)CN1C(=O)NC2(CCCC2)C1=O | inconclusive: 41.1 µM [activator, partial curve, poor fit]
CN1C(=O)Cc2cc(S(=O)(=O)NCc3c(F)cccc3Cl)ccc21 | inconclusive: 20.6 µM [falling, single point]
COCCOC(=O)c1c(NC(=O)CN2c3ccccc3CC2C)sc(C(N)=O)c1C (stereo not drawn) | inactive

Further records:

Structure (SMILES) | Potency
Cc1ccc(CN2CCNC(=O)C2CC(=O)NC2CCCCCC2)cc1 (stereo not drawn) | inconclusive: 14.6 µM [activator, partial curve, poor fit]
Cc1cccc(C)c1OCCCCn1c(C2CC(=O)N(c3ccc(F)cc3)C2)nc2ccccc21 (stereo not drawn) | inconclusive: 20.6 µM [falling, single point]
CC(=O)Nc1ccc(NC(=S)NC(=O)/C=C/c2ccco2)cc1 | inactive
CCCCC[n+]1cccc2c3ccccc3ccc21 | inconclusive: 1.64 µM [falling, partial curve, poor fit]
O=C1C=C(N2CCN(c3ccccn3)CC2)C(=O)c2c(O)ccc(O)c21 | inconclusive: 16.4 µM [falling, single point]
Cc1c(C(=O)NCc2ccc(Cl)cc2)sc2nc3n(c(=O)c12)CCCC3 | inconclusive: 32.6 µM [activator, partial curve, poor fit]
COc1ccc(-c2cc(Cl)cc3c(=O)c4ccccc4n(C)c23)cc1F | inconclusive: 18.4 µM [activator, single point]
CC1CCCN(c2ccc(C(=O)NCc3ccco3)cc2[N+](=O)[O-])C1 (stereo not drawn) | inconclusive: 0.0065 µM [falling, full curve, poor fit]
O=C(NCC(c1cccs1)N1CCOCC1)c1ccccc1NS(=O)(=O)c1cccc([N+](=O)[O-])c1 (stereo not drawn) | inconclusive: 20.6 µM [falling, partial curve, poor fit]
COc1ccc(CNc2cc(NCCCO)c([N+](=O)[O-])c3nonc23)cc1 | inconclusive: 16.4 µM [falling, single point]
Cc1c(-c2cccc(Cl)c2)nc2ccccc2c1C(=O)OC/C(O)=C(\C#N)c1nc2ccccc2[nH]1 | inconclusive: 29.1 µM [falling, single point]
COCCN(C(=O)CSc1nnc(-c2ccco2)n1C)c1c(N)n(CC(C)C)c(=O)[nH]c1=O | inactive
COc1ccccc1-c1noc(CSc2nnc(Cc3ccccc3)n2-c2ccc(C)c(C)c2)n1 | inconclusive: 29.1 µM [falling, single point]
CN(C)c1nc2ccc(OCCN3CCCCC3)cc2s1 | inconclusive: 2.06 µM [activator, partial curve, poor fit]
O=C(CNC(=O)c1cc(=O)[nH]c2ccccc12)Nc1ccc(F)c(F)c1 | inconclusive: 0.146 µM [activator, full curve, poor fit]
CN(C)c1ccc(C=C2C=Cc3ccccc32)cc1 | inactive
Cc1cccc(C)c1N1CCN(C(=O)Nc2ccc3c(c2)OCCO3)CC1 | inactive
CC1CCCN(CCCOc2ccccc2-c2ccccc2)C1 (stereo not drawn) | inconclusive: 29.1 µM [falling, single point]
CCN1CCC(NCCc2ccc(F)cc2)CC1 | inconclusive: 32.6 µM [falling, partial curve, poor fit]
COc1ccc(NS(=O)(=O)c2ccc3c(c2)C(C(C)C)C(=O)N3)cc1 (stereo not drawn) | inactive
CCN(CC)c1ccc2c(-c3ccc(S(=O)(=O)O)cc3S(=O)(=O)[O-])c3ccc(=[N+](CC)CC)cc-3oc2c1 | active: 11.6 µM
Brc1ccc(C2=CC(c3ccco3)n3ncnc3N2)cc1 (stereo not drawn) | inconclusive: 20.6 µM [activator, partial curve]
